# Earlier results, collected in patent US20100028912A1, “IMAGING USING RADIOACTIVE MONOCATIONS IN COMBINATION WITH A RECEPTOR BINDING LIGAND THAT STIMULATES THE INFLUX OF CATIONS” (BRACCO IMAGING S.P.A., priority 2006, published 2010).
# For at least one compound, name, drawing or mass did not settle the structure.
# System: Na+-K+ pump
# Details: guinea pig pancreatic acinar cells in vitro
smiles,measurement,value
C=C[C@@]1(C)CC(=O)[C@]2(O)[C@@]3(C)[C@@H](O)CCC(C)(C)[C@@H]3[C@H](O)[C@H](OC(C)=O)[C@@]2(C)O1 [forskolin],increase of Na+-K+ pump activity (as measured by ouabain-sensitive 86Rb+ uptake),approximately 40%
